Measured values from patent US20090175995A1, “CONTROL OF FLAVOR CHARACTERISTICS OF AND INDICATOR OF FRESHNESS IN FRUIT JUICE” (TROPICANA PRODUCTS, INC., priority 2007, published 2009).
At least one read-out could not be matched to a standard name with certainty.

System: Astringency Taste
Test: Astringency taste threshold, sensory
Set-up: species or system human
Conditions: in vivo
From the text: The inventors have discovered that, as with bitterness, a plurality of compounds present in orange juice below the astringency threshold contributes to the astringent mouth feel of the juice.
To make these evaluations, eleven assessors (four women and seven men, age 23-39 years), who participated for at least two years in weekly training sessions, determined taste recognition threshold concentrations in bottled water (pH 5.1) by means of a three-alternative forced-choice method with ascending concentrations of the stimulus following the procedure reported previously in Stark, T.; Barenther, S.; Hofmann, T. (2005) J. Agric. Food Chem. 53:5407-5418.

With COc1ccc(-c2cc(=O)c3c(OC)c(OC)c(OC)cc3o2)cc1 [5,6,7,4′-tetramethoxyflavone] the “Astringency Taste Threshold” value was 21 µmol/L.
